Source: PubChem BioAssay AID652259 (Drosophila RNAi Screening Center, 2013)
Aim: 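Knock-downs that push a Wingless-driven reporter up or down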 (primary screen). Cells: Drosophila clone 8 imaginal disc epithelial cells. Knock-down reagent: long dsRNA against Drosophila genes. Conditions: pathway stimulated by co-transfected Wingless expression plasmid. Measurement: 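Dual luciferase reads per well after Wingless plasmid stimulation: reporter firefly light and Renilla control light; activity is firefly divided by Renilla, a ratio not deposited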. Reading the numbers: firefly reporter light: higher = more Wg reporter light, before normalisation; Renilla control light: higher = more transfected or surviving cells. Rule for the call: 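a knock-down is a candidate when at least two out of four statistical tests show it departing from its plate mean; one test alone signals a weak candidate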. Calls: active = candidate regulator (raises or lowers reporter); inactive = not a candidate.
The screen tested about 22,000 reagents; below is a random part of those with a known target gene and a result. Over the whole deposit, 233 (1.1%) were called active. 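Light values are raw, unnormalised plate reads; the ratio scores behind the reporter calls were not deposited.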 Unmarked entries are inactive. A plus sign joins genes that one reagent is predicted to hit. The record does not give: the amount of reagent, the time to read-out, the dose of the treatment.

gene knocked down	dsRNA	reporter change call, replicate 1	firefly reporter light, replicate 1	firefly reporter light, replicate 2	Renilla control light, replicate 1	Renilla control light, replicate 2
mib2 (mind bomb 2)	DRSC02623		5037		1027	
CG13024	DRSC09904		7952		3376	
Dic4	DRSC10317		6760		2340	
wts (warts)	DRSC17096	Wg reporter activity raised (active)	6896		552	
MTA1-like (Metastasis associated 1-like)	DRSC12382		14665		1721	
MTA1-like (Metastasis associated 1-like)	DRSC22022		3.64e5	3.21e5	1.54e5	1.56e5
mtDNA-helicase (mitochondrial DNA helicase)	DRSC02912		1590	5594	577	2245
nvy (nervy)	DRSC04705		16970		3287	
CG8206	DRSC20093		1865	3320	540	1430
cib (ciboulot)	DRSC18660		22985		11680	
Wbp2 (WW domain binding protein 2)	DRSC09821		2913		328	
CG13392	DRSC02262		2183	6458	922	2489
CG9631	DRSC14137		4549		1531	
pdm2 (POU domain protein 2)	DRSC02496		2152	4266	874	2061
pdm2 (POU domain protein 2)	DRSC02497		2845	7168	614	2149
pdm2 (POU domain protein 2)	DRSC03587		2161	5474	789	2156
CG3795	DRSC18593		4240	7258	1515	2557
Sema2a (Semaphorin 2a)	DRSC07551		14087		4648	
Ih (I[[h]] channel)	DRSC05477		31752		26404	
Ih (I[[h]] channel)	DRSC07445		13269		3665	
Ih (I[[h]] channel)	DRSC22956		6.39e5	7.28e5	2.93e5	2.91e5
Acox57D-d (acyl-Coenzyme A oxidase at 57D distal)	DRSC04561		10992		3377	
CG1674	DRSC17107		2677		1252	
CG1674	DRSC17142		19623		12320	
CG42676	DRSC08227		24484		3813	
CG42676	DRSC08392		4554		2112	
Rich (RIC1 homolog)	DRSC11607		10912		2355	
gig (gigas)	DRSC11351		3899		2135	
DUBAI + Tmem18	DRSC05344		22903		18934	
